The record followed here is PubChem BioAssay (Tox21).

Each structure is given as a SMILES string. “And” between values parts separate entries of the source, which are not always exact repeats. Equal values may be shown once. This list holds what a sample rich in hits left over. Records with an inconclusive call do not appear. The source made the active and inactive calls. Calls come from the whole dose curve; as a rule, active = well fitted cell-killing curve with a large enough effect in the repeat runs; inconclusive = weak or mixed curves, or effect the other way; inactive = flat fitted curve, though single readings scatter.
% is set by controls: 0 for no effect and ±100 for the full control effect.

The first assay is described as follows: cAMP Responsive Elements (CRE) small molecule antagonists, cell-based qHTS assay: qHTS cell viability counter screen (AID 2060913). Note: nearly all actives have a fitted effect of over 40% in size. Particulars: CRE-bla HEK293T viability, CellTiter-Glo luminescence, 5 h; at 92.4 µM (top of the series). The source says:
(§1) U.S. Tox21 Program National Center for Advancing Translational Sciences [NCATS] Division of Preclinical Innovation [DPI] U.S. Environmental Protection Agency [EPA] National Institutes of Environmental Health Sciences [NIEHS] National Toxicology Program [NTP] U.S. Food and Drug Administration [FDA] Tox21 Assay Overview: CREB (cyclic-AMP Responsive Element Binding Protein) is a cellular transcription factor. It binds to certain DNA sequences called cAMP Responsive Elements (CRE) and regulates the transcription of the genes. […] This cell line can be used to find agonists/antagonists of the cyclic AMP signaling pathway. The activation of the report gene under culture conditions can be detected by fluorescence intensity. This cell line has been used to screen the Tox21 10K compound library to identify agonists that induce oxidative stress. The cytotoxicity of the Tox21 compound library against the CRE-bla cell line was tested in parallel by measuring the cell viability using CellTiter-Glo assay (Promega, Madison, WI) in the same wells.
Tox21 Assay Protocol Summary: CRE-bla Hek 293T cells were suspended in assay medium (DMEM containing 10% dialyzed FBS, 0.1 mM NEAA, 1 mM sodium pyruvate and 25 mM HEPES) and dispensed at 2,000 cells/4 uL /well into 1536-well black wall/clear bottom plates using a Multidrop Combi (ThermoFisher Scientific, Waltham, MA) dispenser. After the assay plates were incubated at 37 C/5% CO2 for 18 hrs, 23 nL of compounds dissolved in DMSO, positive controls or DMSO only was transferred to the assay plate by a pintool workstation (Kalypsys, San Diego, CA), followed by addition of 1 uL of 1.25uM NKH477 (0.25 uM as final concentration) in assay medium using a Flying Reagent Dispenser (Aurora Discovery, San Diego, CA). The plates were incubated at 37 C and 5% CO2 for 3 hrs. Then 1 uL of LiveBLAzer B/G FRET substrate (Invitrogen, Carlsbad, CA) was added to each well using Bioraptr Flying Reagent Dispenser (FRD, Aurora Discovery, San Diego, CA). The plates were incubated at room temperature for 2 h, then fluorescence intensities were measured using an Envision plate reader (PerkinElmer, Shelton, CT) at Excitation 405nm, Emission 460nm and 530nm. The % activity was determined from the ratio of 460nm/530nm. For cell viability readout that measures cytotoxicity, 4 uL /well of CellTiter-Glo reagent was added into the assay plates using Bioraptr FRD. After 30 min incubation at room temperature, the luminescence intensity in the assay plates was measured using a ViewLux (PerkinElmer, Shelton, CT) plate reader.
For orientation: Quantitative high-throughput screening tests each substance at several concentrations.
`Cc1ccc2ccccc2c1C`: the viability change, negative = cytotoxic is inactive: -1.88% and inactive: -3.1%.
In the case of `Cc1ccc(O)cc1C`, the viability change, negative = cytotoxic was inactive: 5.63% and inactive: 8.76%.
In the case of `CC(C)(C)c1ccc(O)cc1`, the viability change, negative = cytotoxic was inactive: -10.6% and inactive: -7.16%.
Turning to `Oc1c(Cl)cc(Cl)cc1Cl`, the viability change, negative = cytotoxic was inactive: 0.901% and inactive: 3.94%.

Another assay in a line: cAMP Responsive Elements (CRE) small molecule agonists, cell-based qHTS assay: qHTS cell viability counter screen (AID 2060914).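 Note: viability read after 3 h of compound exposure; nearly all actives have a fitted effect of over 50% in size.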 As to conditions: CRE-bla HEK293T viability, CellTiter-Glo luminescence, 5 h; at 92.4 µM (top of the series).
Description: National Center for Advancing Translational Sciences [NCATS]
Division of Preclinical Innovation [DPI]
U.S. Environmental Protection Agency [EPA]
National Institutes of Environmental Health Sciences [NIEHS]
National Toxicology Program [NTP]
U.S. Food and Drug Administration [FDA]
as §1, with “CREB” for “U.S. Tox21 Program National Center for Advancing Translational Sciences [NCATS] Division of Preclinical Innovation [DPI] U.S. Environmental Protection Agency [EPA] National Institutes of Environmental Health Sciences [NIEHS] National Toxicology Program [NTP] U.S. Food and Drug Administration [FDA] Tox21 Assay Overview: CREB”
Tox21 Assay Protocol Summary:
CRE-bla Hek 293T cells were suspended in assay medium (DMEM containing 10% dialyzed FBS, 0.1 mM NEAA, 1 mM sodium pyruvate and 25 mM HEPES) and dispensed at 2,000 cells/5 uL /well into 1536-well black wall/clear bottom plates using a Multidrop Combi (ThermoFisher Scientific, Waltham, MA) dispenser. After the assay plates were incubated at 37 C/5% CO2 for 18 hrs, 23 nL of compounds dissolved in DMSO, positive controls or DMSO only was transferred to the assay plate by a pintool workstation (Kalypsys, San Diego, CA). After the plates were incubated at 37 C/5% CO2 for 3 hrs, 1 uL of LiveBLAzer B/G FRET substrate (Invitrogen, Carlsbad, CA) was added to each well using Bioraptr Flying Reagent Dispenser (FRD, Aurora Discovery, San Diego, CA). The plates were incubated at room temperature for 2 h, then fluorescence intensities were measured using an Envision plate reader (PerkinElmer, Shelton, CT) at Excitation 405nm, Emission 460nm and 530nm. The % activity was determined from the ratio of 460nm/530nm. For cell viability readout that measures cytotoxicity, 4 uL /well of CellTiter-Glo reagent was added into the assay plates using Bioraptr FRD. After 30 min incubation at room temperature, the luminescence intensity in the assay plates was measured using a ViewLux (PerkinElmer, Shelton, CT) plate reader.
For the compound `Cc1ccc2ccccc2c1C`, the activity change, negative = cytotoxicity was inactive: 1.64% and inactive: 1.6%.
Same read-out and setting: to `Cc1ccc(O)cc1C` belongs inactive: -7.25% and inactive: -5.9%; to `CC(C)(C)c1ccc(O)cc1`, inactive: 0.308% and inactive: -20.8%; to `O=[N+]([O-])c1ccccc1Cl`, inactive: 15.7%.
With `Oc1c(Cl)cc(Cl)cc1Cl`, the activity change, negative = cytotoxicity was inactive: 1.66% and inactive: 0.149%.
